From the supplement of paper PMC6078165
± gives the standard deviation of the averaged measurements. The reference is the same well before dosing, and untreated signal decays as well.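 Labels refer to human fibroblasts, largely primary: uterine (C12385, HUF), lung (H6013), bone (Hs27A), adrenal (HADF), skin (WS1), plus mammary HMF and breast cancer-associated Hs343T. Cancer lines are basal-like or mesenchymal-like triple-negative breast cancer. The paper counts as hits responses shifting over 3x the replicate standard deviation. The tissue of the other fibroblasts is not given here.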

Test system: MDAMB231
Experiment: relative JC-1 red fluorescence (viability) vs pre-drug, coculture with fibroblast (fraction); higher = more viable cancer cells
Experimental: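 JC-1 labelled TNBC cells cocultured 1:1 (1,500 cells each) with CellTrace Violet stained primary or stromal fibroblasts in 384-well plates in FluoroBrite medium, treated with one of 42 anticancer drugs at 0.1, 1, 10 or 100 uM. JC-1 red fluorescence (mitochondrial integrity in cancer cells only) was read by plate reader every 8 h for 72 h. Values are normalised to each well's pre-drug value. The stock of one drug was tenfold lower, so its dose labels may be too high.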

COc1cc([C@@H]2c3cc4c(cc3[C@@H](O[C@@H]3O[C@@H]5CO[C@@H](c6cccs6)O[C@H]5[C@H](O)[C@H]3O)[C@H]3COC(=O)[C@H]23)OCO4)cc(OC)c1O [Teniposide]
relative JC-1 red fluorescence
Settings | 8 h | 16 h | 24 h | 32 h | 40 h | 48 h | 56 h | 64 h | 72 h
0.1 µM, coculture fibroblast: C12385 | 0.772 ± 0.028 | 0.724 ± 0.008 | 0.676 ± 0.0092 | 0.63 ± 0.011 | 0.553 ± 0.019 | 0.53 ± 0.013 | 0.49 ± 0.016 | 0.498 ± 0.01 | 0.489 ± 0.018
0.1 µM, coculture fibroblast: H6013 | 0.879 ± 0.014 | 0.801 ± 0.0088 | 0.784 ± 0.027 | 0.775 ± 0.044 | 0.754 ± 0.059 | 0.75 ± 0.094 | 0.725 ± 0.09 | 0.703 ± 0.11 | 0.673 ± 0.11
0.1 µM, coculture fibroblast: H6019 | 0.743 ± 0.0094 | 0.672 ± 0.01 | 0.638 ± 0.0085 | 0.575 ± 0.0069 | 0.524 ± 0.006 | 0.497 ± 0.0073 | 0.452 ± 0.0066 | 0.4354 ± 0.0037 | 0.4057 ± 0.0024
0.1 µM, coculture fibroblast: H6076 | 0.844 ± 0.039 | 0.781 ± 0.024 | 0.752 ± 0.025 | 0.737 ± 0.022 | 0.698 ± 0.03 | 0.662 ± 0.025 | 0.651 ± 0.024 | 0.64 ± 0.022 | 0.643 ± 0.027
0.1 µM, coculture fibroblast: H6231 | 0.8885 ± 0.0019 | 0.797 ± 0.036 | 0.742 ± 0.021 | 0.692 ± 0.024 | 0.636 ± 0.024 | 0.608 ± 0.017 | 0.562 ± 0.014 | 0.545 ± 0.011 | 0.525 ± 0.023
0.1 µM, coculture fibroblast: HADF | 0.847 ± 0.027 | 0.823 ± 0.022 | 0.812 ± 0.043 | 0.795 ± 0.069 | 0.751 ± 0.078 | 0.731 ± 0.12 | 0.712 ± 0.11 | 0.708 ± 0.12 | 0.667 ± 0.15
0.1 µM, coculture fibroblast: HCFa | 0.875 ± 0.011 | 0.839 ± 0.012 | 0.796 ± 0.0084 | 0.73138 ± 0.00022 | 0.67495 ± 0.00011 | 0.6272 ± 0.0037 | 0.579 ± 0.015 | 0.528 ± 0.016 | 0.476 ± 0.0094
0.1 µM, coculture fibroblast: HCPF | 0.85 ± 0.024 | 0.762 ± 0.044 | 0.709 ± 0.044 | 0.688 ± 0.058 | 0.639 ± 0.056 | 0.612 ± 0.057 | 0.58 ± 0.056 | 0.561 ± 0.056 | 0.539 ± 0.041
0.1 µM, coculture fibroblast: HHSteC | 0.886 ± 0.014 | 0.8471 ± 0.0029 | 0.795 ± 0.018 | 0.747 ± 0.019 | 0.714 ± 0.019 | 0.678 ± 0.016 | 0.634 ± 0.0098 | 0.6057 ± 0.0016 | 0.5578 ± 0.0015
0.1 µM, coculture fibroblast: HMF | 0.822 ± 0.039 | 0.754 ± 0.043 | 0.707 ± 0.05 | 0.679 ± 0.053 | 0.644 ± 0.055 | 0.611 ± 0.066 | 0.586 ± 0.066 | 0.586 ± 0.062 | 0.588 ± 0.05
0.1 µM, coculture fibroblast: HPFa | 0.909 ± 0.031 | 0.867 ± 0.027 | 0.812 ± 0.029 | 0.747 ± 0.028 | 0.724 ± 0.02 | 0.68 ± 0.022 | 0.624 ± 0.0074 | 0.5912 ± 0.004 | 0.539 ± 0.012
0.1 µM, coculture fibroblast: HUF | 0.821 ± 0.0068 | 0.707 ± 0.015 | 0.711 ± 0.021 | 0.606 ± 0.035 | 0.536 ± 0.044 | 0.513 ± 0.044 | 0.473 ± 0.05 | 0.472 ± 0.058 | 0.468 ± 0.059
0.1 µM, coculture fibroblast: Hs5 | 0.845 ± 0.032 | 0.7894 ± 0.0037 | 0.748 ± 0.019 | 0.711 ± 0.031 | 0.669 ± 0.045 | 0.615 ± 0.053 | 0.577 ± 0.069 | 0.555 ± 0.072 | 0.548 ± 0.088
0.1 µM, coculture fibroblast: Hs27A | 0.891 ± 0.053 | 0.871 ± 0.057 | 0.856 ± 0.065 | 0.848 ± 0.08 | 0.802 ± 0.086 | 0.745 ± 0.066 | 0.744 ± 0.08 | 0.728 ± 0.067 | 0.676 ± 0.05
0.1 µM, coculture fibroblast: Hs343T | 0.851 ± 0.012 | 0.739 ± 0.01 | 0.674 ± 0.024 | 0.644 ± 0.026 | 0.587 ± 0.042 | 0.543 ± 0.037 | 0.492 ± 0.03 | 0.476 ± 0.033 | 0.458 ± 0.032
0.1 µM, coculture fibroblast: WS1 | 0.711 ± 0.013 | 0.633 ± 0.022 | 0.581 ± 0.013 | 0.52 ± 0.02 | 0.474 ± 0.026 | 0.454 ± 0.026 | 0.421 ± 0.015 | 0.431 ± 0.011 | 0.422 ± 0.018
1 µM, coculture fibroblast: C12385 | 0.744 ± 0.0088 | 0.732 ± 0.019 | 0.6774 ± 0.0014 | 0.666 ± 0.018 | 0.575 ± 0.0062 | 0.566 ± 0.024 | 0.539 ± 0.033 | 0.551 ± 0.04 | 0.541 ± 0.059
1 µM, coculture fibroblast: H6013 | 0.8694 ± 0.0015 | 0.847 ± 0.027 | 0.811 ± 0.032 | 0.779 ± 0.04 | 0.748 ± 0.056 | 0.736 ± 0.068 | 0.71 ± 0.078 | 0.696 ± 0.073 | 0.652 ± 0.071
1 µM, coculture fibroblast: H6019 | 0.794 ± 0.024 | 0.735 ± 0.026 | 0.726 ± 0.047 | 0.679 ± 0.008 | 0.636 ± 0.027 | 0.621 ± 0.051 | 0.583 ± 0.064 | 0.573 ± 0.081 | 0.545 ± 0.1
1 µM, coculture fibroblast: H6076 | 0.802 ± 0.0096 | 0.754 ± 0.0074 | 0.734 ± 0.043 | 0.731 ± 0.073 | 0.685 ± 0.087 | 0.655 ± 0.087 | 0.645 ± 0.092 | 0.642 ± 0.09 | 0.633 ± 0.09
1 µM, coculture fibroblast: H6231 | 0.877 ± 0.03 | 0.787 ± 0.0079 | 0.7404 ± 0.0029 | 0.701 ± 0.0098 | 0.653 ± 0.017 | 0.626 ± 0.013 | 0.589 ± 0.0095 | 0.573 ± 0.024 | 0.55 ± 0.025
1 µM, coculture fibroblast: HADF | 0.857 ± 0.03 | 0.83 ± 0.031 | 0.793 ± 0.04 | 0.758 ± 0.058 | 0.735 ± 0.056 | 0.707 ± 0.07 | 0.687 ± 0.056 | 0.677 ± 0.07 | 0.632 ± 0.079
1 µM, coculture fibroblast: HCFa | 0.922 ± 0.071 | 0.899 ± 0.084 | 0.874 ± 0.095 | 0.836 ± 0.11 | 0.8 ± 0.13 | 0.745 ± 0.11 | 0.694 ± 0.11 | 0.659 ± 0.097 | 0.599 ± 0.08
1 µM, coculture fibroblast: HCPF | 0.8676 ± 0.0041 | 0.778 ± 0.029 | 0.723 ± 0.027 | 0.71 ± 0.022 | 0.651 ± 0.033 | 0.619 ± 0.026 | 0.587 ± 0.027 | 0.561 ± 0.03 | 0.544 ± 0.025
1 µM, coculture fibroblast: HHSteC | 0.928 ± 0.049 | 0.916 ± 0.068 | 0.889 ± 0.08 | 0.848 ± 0.067 | 0.808 ± 0.047 | 0.788 ± 0.051 | 0.75 ± 0.043 | 0.727 ± 0.03 | 0.681 ± 0.017
1 µM, coculture fibroblast: HMF | 0.845 ± 0.011 | 0.8012 ± 0.0014 | 0.781 ± 0.017 | 0.756 ± 0.012 | 0.724 ± 0.0098 | 0.692 ± 0.018 | 0.67 ± 0.016 | 0.669 ± 0.016 | 0.66 ± 0.023
1 µM, coculture fibroblast: HPFa | 0.9157 ± 0.0051 | 0.904 ± 0.011 | 0.863 ± 0.019 | 0.817 ± 0.031 | 0.806 ± 0.05 | 0.779 ± 0.05 | 0.717 ± 0.067 | 0.687 ± 0.075 | 0.64 ± 0.08
1 µM, coculture fibroblast: HUF | 0.87 ± 0.019 | 0.7853 ± 0.0056 | 0.837 ± 0.011 | 0.747 ± 0.051 | 0.707 ± 0.08 | 0.729 ± 0.1 | 0.695 ± 0.1 | 0.71 ± 0.094 | 0.722 ± 0.09
1 µM, coculture fibroblast: Hs5 | 0.8448 ± 0.0083 | 0.784 ± 0.015 | 0.746 ± 0.028 | 0.698 ± 0.03 | 0.66 ± 0.039 | 0.612 ± 0.039 | 0.593 ± 0.035 | 0.58 ± 0.032 | 0.56 ± 0.039
1 µM, coculture fibroblast: Hs27A | 0.885 ± 0.051 | 0.859 ± 0.05 | 0.837 ± 0.043 | 0.811 ± 0.018 | 0.7698 ± 0.0022 | 0.714 ± 0.043 | 0.711 ± 0.042 | 0.697 ± 0.061 | 0.648 ± 0.074
1 µM, coculture fibroblast: Hs343T | 0.836 ± 0.015 | 0.769 ± 0.0093 | 0.711 ± 0.021 | 0.669 ± 0.036 | 0.608 ± 0.047 | 0.558 ± 0.051 | 0.509 ± 0.057 | 0.49 ± 0.061 | 0.463 ± 0.044
1 µM, coculture fibroblast: WS1 | 0.7331 ± 0.0022 | 0.6831 ± 0.0034 | 0.63616 ± 0.00032 | 0.589 ± 0.019 | 0.538 ± 0.015 | 0.509 ± 0.021 | 0.478 ± 0.029 | 0.478 ± 0.04 | 0.472 ± 0.047
